Measured data: PubChem BioAssay AID1159578 (Peter MacCallum Cancer Centre, 2015)

Aim: 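siRNA pools altering how lymphatic endothelial cells close a scratch wound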 (primary screen)
Cell system: human lymphatic endothelial cells
Reagents: siRNA pool against human genes, 40 nM
Time to read-out: 48 h after transfection
Measurement: 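Cells stained with dye and imaged after a scratch; covered wound area and nuclei counted, duplicates averaged, migration set against mock wells and turned into a robust z-score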
Reading the numbers: migration robust z-score: higher = faster migration into the scratch; nuclei per well: higher = more cells in the well
Active means: 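Migration changed when robust z exceeds 2 or falls below -2 and mean nuclei number is at least 3300; otherwise not called changed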
Meaning of the calls: active = migration changed; inactive = no migration change, or too few cells
In all, the deposit lists about 18,000 reagents; below is an unselected part. Of all reagents, about 1,030 (5.7%) were called active. 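Inactive calls also include pools with fewer than 3300 nuclei, whose migration was not assessed.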 Raw values vary from plate to plate and are shown uncorrected. Not all columns of the deposit are shown. No sequences are given here.

With FBXL21P (GeneID 26223), what was measured?
migration robust z-score: -1.02; nuclei per well, duplicate mean: 5837; outcome: inactive

For SPNS3 (GeneID 201305), what does the deposit list?
migration robust z-score: -1.23; nuclei per well, duplicate mean: 5708; outcome: inactive

For UNC13C (GeneID 440279), what was measured?
migration robust z-score: -0.17; nuclei per well, duplicate mean: 4953; outcome: inactive

With MATR3 (GeneID 9782), what was measured?
migration robust z-score: 0.96; nuclei per well, duplicate mean: 6340; outcome: inactive

For SCAF11 (GeneID 9169), how do the results read?
migration robust z-score: 0.55; nuclei per well, duplicate mean: 5396; outcome: inactive

For SMYD1 (GeneID 150572), what was measured?
migration robust z-score: 0.57; nuclei per well, duplicate mean: 5368; outcome: inactive

How did the screen score ARMCX6 (GeneID 54470)?
migration robust z-score: -0.22; nuclei per well, duplicate mean: 4203; outcome: inactive

With GAK (GeneID 2580), what does the deposit list?
migration robust z-score: 0.16; nuclei per well, duplicate mean: 5198; outcome: inactive

What did the screen give for NUP214 (GeneID 8021)?
migration robust z-score: 0.21; nuclei per well, duplicate mean: 5621; outcome: inactive

For ANKRD55 (GeneID 79722), how do the results read?
migration robust z-score: -0.12; nuclei per well, duplicate mean: 5394; outcome: inactive

What is on record for TRAPPC13 (GeneID 80006)?
migration robust z-score: -0.32; nuclei per well, duplicate mean: 6300; outcome: inactive

With LRRC45 (GeneID 201255), what was measured?
migration robust z-score: 0.15; nuclei per well, duplicate mean: 6372; outcome: inactive

What did the screen give for CDKL4 (GeneID 344387)?
migration robust z-score: -0.36; nuclei per well, duplicate mean: 4936; outcome: inactive

What is on record for PSD2 (GeneID 84249)?
migration robust z-score: -0.1; nuclei per well, duplicate mean: 7108; outcome: inactive
